Consider one substance from PMC3843111.

The chains behind the UniProt entries cited, without tags or fusion partners.
UniProt Q8CHK4: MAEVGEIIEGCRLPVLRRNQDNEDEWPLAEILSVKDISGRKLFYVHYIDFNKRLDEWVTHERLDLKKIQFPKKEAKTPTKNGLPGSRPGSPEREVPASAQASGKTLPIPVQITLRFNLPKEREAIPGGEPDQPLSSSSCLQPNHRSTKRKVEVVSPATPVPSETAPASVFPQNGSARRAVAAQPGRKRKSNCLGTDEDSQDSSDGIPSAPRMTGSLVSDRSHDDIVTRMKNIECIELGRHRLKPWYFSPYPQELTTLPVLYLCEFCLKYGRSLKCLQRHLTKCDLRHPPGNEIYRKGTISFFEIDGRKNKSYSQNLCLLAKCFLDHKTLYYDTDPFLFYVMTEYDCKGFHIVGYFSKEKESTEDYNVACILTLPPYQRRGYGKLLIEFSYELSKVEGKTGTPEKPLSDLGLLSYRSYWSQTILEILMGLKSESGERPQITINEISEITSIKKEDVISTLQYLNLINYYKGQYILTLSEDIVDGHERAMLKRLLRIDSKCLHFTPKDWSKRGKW
UniProt Q9JI44: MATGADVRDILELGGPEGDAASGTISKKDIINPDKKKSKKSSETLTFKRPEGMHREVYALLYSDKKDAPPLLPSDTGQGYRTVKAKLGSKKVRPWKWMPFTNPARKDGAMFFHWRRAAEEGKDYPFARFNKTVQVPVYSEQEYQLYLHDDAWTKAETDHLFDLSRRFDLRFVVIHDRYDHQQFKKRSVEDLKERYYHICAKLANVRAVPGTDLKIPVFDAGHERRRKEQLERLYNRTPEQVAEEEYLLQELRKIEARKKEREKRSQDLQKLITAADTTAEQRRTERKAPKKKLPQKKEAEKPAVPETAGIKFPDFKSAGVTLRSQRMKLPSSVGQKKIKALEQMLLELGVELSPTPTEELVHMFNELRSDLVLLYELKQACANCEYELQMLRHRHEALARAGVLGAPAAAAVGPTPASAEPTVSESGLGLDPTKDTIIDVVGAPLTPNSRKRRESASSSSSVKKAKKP

For experiment [1], the target named is Tip60-H3F (Tip60 with a C-terminal 6-histidine-3-FLAG tag, from the endogenous gene) in ESCs (mouse (endogenous in ESCs)) (UniProt Q8CHK4). Kind of experiment: co-IP; Tip60-H3F immunoprecipitated with anti-FLAG (FLAG-M2 Agarose) from nuclear extracts (ESCs; NSCs), Western blot; IP buffer 50 mM Tris-HCl pH7.4, 250 mM NaCl, 0.1% Triton X-100, overnight at 4°C; also with DNase I or ethidium bromide, with high-salt washes, and with five additional washes with or without 10 uM tubastatin A. In general terms: A western blot detects proteins with antibodies after separation by electrophoresis.

For experiment [2] the target is unchanged. Kind of experiment: co-IP; Tip60 complexes purified (FLAG-M2 Agarose, then TALON Agarose) from nuclear extracts of Tip60-H3F ESCs or MEFs, Western blot.

These are yes or no findings as the source states them, for the method shown. Binding seen in cells or lysates may run through a third protein. Some results given as binding are weak or reduced against the parent protein; the word gives no strength.

In the case of “DNA methyltransferase 1-associated protein 1 (from UniProt Q9JI44 1-468)”, the binding result in experiment [1] and in experiment [2] was “binds” throughout.
